{"source": "paper PMC7266957", "tested_on": "AcrF7 (Pseudomonas aeruginosa)", "test": "BLI", "details": "500 nM AcrF7 alone, very low shift, weak non-specific interaction; recombinant protein; protein details: His-tag; label: 5' biotin-TEG", "note": "Construct, isoform or probe ends are uncertain for at least one entry. The comparison behind a weaker result is the experiment's own reference, which may not be listed here.", "data": [{"sequence": "CGCCGGTTATAGGTTTGCGCGTCTTGCTGGGCGATAGGACGTGGGATATCTTTTTGATATCCCACGTCCTATCGCCCAGCAAGACGCGCAAACCTATAACCGGCG (double strand) [Complementary (GG PAM)]", "values": [{"measurement": "binding result", "result": "binds more weakly"}]}]}
